Measurements from “University of Dundee, Small-Polar-MMV Screening Library” (2021), ChEMBL document CHEMBL3988442.

Amino acid sequences for entries named in this document (tags omitted).
UniProt E9BF75, entry or part of it: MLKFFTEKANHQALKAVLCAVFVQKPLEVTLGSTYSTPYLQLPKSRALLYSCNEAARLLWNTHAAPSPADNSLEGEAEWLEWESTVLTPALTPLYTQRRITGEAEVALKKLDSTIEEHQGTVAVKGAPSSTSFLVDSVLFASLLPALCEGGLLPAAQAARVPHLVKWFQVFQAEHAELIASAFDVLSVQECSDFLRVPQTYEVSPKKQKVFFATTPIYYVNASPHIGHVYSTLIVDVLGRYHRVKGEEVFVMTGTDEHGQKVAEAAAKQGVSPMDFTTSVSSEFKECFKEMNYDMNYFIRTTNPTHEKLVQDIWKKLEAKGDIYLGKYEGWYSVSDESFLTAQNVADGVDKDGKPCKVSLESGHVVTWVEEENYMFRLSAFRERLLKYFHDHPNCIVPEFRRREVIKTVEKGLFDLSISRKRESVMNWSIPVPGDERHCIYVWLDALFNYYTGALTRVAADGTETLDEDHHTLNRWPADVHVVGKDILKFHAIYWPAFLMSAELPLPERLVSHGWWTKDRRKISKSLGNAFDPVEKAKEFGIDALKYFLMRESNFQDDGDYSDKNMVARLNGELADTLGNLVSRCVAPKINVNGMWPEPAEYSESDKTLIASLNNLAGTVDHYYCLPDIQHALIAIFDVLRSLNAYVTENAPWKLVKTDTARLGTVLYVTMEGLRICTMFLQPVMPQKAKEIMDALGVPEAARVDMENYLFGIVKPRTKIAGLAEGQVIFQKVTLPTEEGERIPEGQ

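Methionyl-tRNA synthetase (putative), Leishmania donovani (UniProt E9BF75). Primary screen of methionyl-tRNA synthetase; the read-out is not stated. The test concentration is not given. Values are per cent inhibition. About 68,000 compounds were tested under these conditions; 0.035% (about 24) showed 50% or more at least once.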

All values are in %.
The controls that fix the scale are not given in the record; negative values are as filed.
This is an unselected part of the compounds tested.

Compound	inhibition
CN1CCC(c2cc(CCO)ncn2)C1 (stereo unspecified)	11.02%
c1ccc2ncc(CC3CCNCC3)cc2c1	3.723%
CC(C)n1[nH]c(=O)c2c1NC(=O)CSC2c1ccc(OCC(N)=O)cc1 (stereo unspecified)	13.14%
O=C(Cn1nc2ccccc2n1)N1CCCC(O)(CO)C1 (stereo unspecified)	14.2%
COCCCN(C)[C@@H]1c2ccccc2C2(CCNCC2)[C@H]1O	1.044%
Cc1nn(C)c(Cl)c1C1CCCN1C(=O)c1ccc[nH]1 (stereo unspecified)	6.838%
CC1CCN(C(=O)C2CC(=O)N(c3cnn(C(C)C)c3)C2)CC1 (stereo unspecified)	11.05%
CN(C)c1nc(N)nc(CN2CCC(c3nc4ccccc4o3)CC2)n1	15.41%
COc1ccnc(NC2CCN(CC(=O)N3CCCC3)CC2)n1	14.17%
COc1cc(F)c(S(=O)(=O)Nc2cnc(O)cc2C)cc1OC	9.172%
Cc1cc(Oc2ccc(NC(=O)C3CC3)cc2)cc(C2CCNCC2)n1	11.63%
CNc1cnc(CC2COCCN(Cc3ccccc3)C2)cn1 (stereo unspecified)	11.75%
Cc1ncc(CN2CC[C@@](C)(O)[C@H](Oc3cccc(F)c3)C2)cn1	5.412%
CCCS(=O)(=O)N1CCO[C@H]2[C@@H](Oc3cccnc3)CC[C@@H]21	7.726%
Cc1c(C)n(-c2ccccn2)c2nc3c(c(N)c12)CCCCC3	11.82%
CCNC(=O)NC(=O)CN1CCOC(c2ccc(Br)cc2)C1 (stereo unspecified)	8.696%
CN1C(=O)C2(CCN(Cc3nccn3C)CC2)c2ccccc21	7.222%
Cn1ccnc1CN1CCCC(CO)(CCc2ccccc2)C1 (stereo unspecified)	4.982%
CSCC[C@H](NC(=O)CCn1ccc2c(Br)cccc21)C(=O)O	17.88%
CC(C(=O)N1CCc2ccccc2C1)n1cc(Br)cn1 (stereo unspecified)	11.02%
O=C(Cn1cc(Cl)cn1)N1CCNC1=O	11.76%
COCC1CN(C(=O)Cc2ccsc2)Cc2c1cnn2C (stereo unspecified)	12.09%

Some entries from above, unchanged:

| Compound | inhibition |
|---|---|
| `Cc1nn(C)c(Cl)c1C1CCCN1C(=O)c1ccc[nH]1` (stereo unspecified) | 6.838% |
| `Cc1ncc(CN2CC[C@@](C)(O)[C@H](Oc3cccc(F)c3)C2)cn1` | 5.412% |